Experimental data published in PMC4749977, “Alp7/TACC-Alp14/TOG generates long-lived, fast-growing MTs by an unconventional mechanism” (Scientific Reports, 2016).
Results are given in words; binding and its absence hold for the method and conditions named. Sequences can lack the tags named with a protein.

Chains of the proteins cited; added tags and fusions are not shown. Lines headed by an entry give the natural chain unless they say otherwise; changes in a name come on top.
UniProt P04688: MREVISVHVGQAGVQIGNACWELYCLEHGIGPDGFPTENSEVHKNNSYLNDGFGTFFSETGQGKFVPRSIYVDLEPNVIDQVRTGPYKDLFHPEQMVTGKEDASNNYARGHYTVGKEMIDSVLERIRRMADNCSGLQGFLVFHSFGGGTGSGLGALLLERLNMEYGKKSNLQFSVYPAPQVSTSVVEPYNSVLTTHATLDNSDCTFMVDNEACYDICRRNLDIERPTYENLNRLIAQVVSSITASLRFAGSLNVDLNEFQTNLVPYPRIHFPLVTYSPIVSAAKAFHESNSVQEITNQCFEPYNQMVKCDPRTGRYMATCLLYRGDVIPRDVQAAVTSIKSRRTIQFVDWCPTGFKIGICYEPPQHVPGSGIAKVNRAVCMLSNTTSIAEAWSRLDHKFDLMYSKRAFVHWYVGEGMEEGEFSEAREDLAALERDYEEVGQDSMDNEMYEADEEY

Target: T1, S. pombe single isoform (α1β) tubulin (S. pombe, UniProt P04688 1-455; P05219 1-448)
T1 construct: alpha-1 tubulin (α1) of S. pombe, from strain mmsp174 (atb2 replaced by nda2+); beta tubulin (β) of S. pombe, from strain mmsp174; Stands both as the free GTP-tubulin heterodimer and as the growing plus end of the microtubule polymerised from it; which of the two is meant is told in the assay's format and the quantity; also called GTP-tubulin; T (tubulin dimer); source: purified from S. pombe …
Assay: glycerol gradient centrifugation; 5-40% glycerol gradient of purified Alp14, Alp7 and tubulin, alone or mixed; tubulin as GTP-tubulin where stated; fractions on SDS-PAGE with Coomassie staining; both purified

B1: Alp7, full length, with an N-terminal avi-tag (natural protein, S. pombe, UniProt Q9URY2 1-474, looked up)
chain: MSDIVSSSTDYSRRSPSSSSIGTNETDHTGFHEKRQGASSESLIPPAQRSSEESMPAPKLFPKLTSKPNPQLNLKDTLNKRVSDRLQALELNKSFDFSGTPRPMHPISHPLSQHKTPEFKHRKRNVESILTPKNPSLFSSSNAASQRGSLNTAPSNFAYSHSSSLQTSASSRPPVLSNGSFPRQTNTAPLNPPVHLKDNIRNSATPSTSQADIPTQYPINSTQKQQAKYEAEIEGYKAKLAGTYHEISVLQNTIVNVSGQLIAVNDQLQQLRSGKASTSPSTKDTNMRLVEGHNEETLALQRGKYTQEEVDKLIQERMEKVAEDLHAQYSAKHTQKINAFKANYARKYEATIQELQNQIGTAPNAPKISNSNWEEERRALKADNQTLQKQLEKAIQERQDMSDFLNNFKADMAKSDKLLMQQQSQQTGDLETLRLQLQALQEELRVEREERQQLIQMSEDLVIAMDQLNLEQKS
modifications: biotin on the AviTag (BirA ligase co-expressed to ensure biotinylation)
notes: Alp7 (Mia1p), TACC-family protein of S. pombe, full length; gene PCR-amplified from wild-type genomic S. pombe DNA; also called Alp7/TACC; Mia1p; source: Sf9 insect cells (baculovirus, BirA ligase co-expressed), purified on monomeric avidin agarose
- binding: no binding
